Results on one molecule are retold here after patent US20250376532A1.

Sequences of proteins named here, by UniProt entry; tags and fusion partners are left off. A change or cut given only in a name is not applied to a line headed by its entry.
UniProt O14763: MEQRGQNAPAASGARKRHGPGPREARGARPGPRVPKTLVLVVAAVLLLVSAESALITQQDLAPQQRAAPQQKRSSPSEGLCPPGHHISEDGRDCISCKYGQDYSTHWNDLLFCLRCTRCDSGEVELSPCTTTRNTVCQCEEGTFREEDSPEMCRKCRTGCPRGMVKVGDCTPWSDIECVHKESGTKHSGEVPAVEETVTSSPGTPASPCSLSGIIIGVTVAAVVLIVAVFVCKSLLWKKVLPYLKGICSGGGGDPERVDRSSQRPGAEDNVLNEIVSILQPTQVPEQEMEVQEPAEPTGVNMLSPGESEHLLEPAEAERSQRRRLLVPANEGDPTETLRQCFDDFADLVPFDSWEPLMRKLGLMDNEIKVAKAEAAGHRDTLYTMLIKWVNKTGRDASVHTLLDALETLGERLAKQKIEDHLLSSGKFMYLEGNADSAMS

These are yes or no findings as the source states them, for the method shown. Some binding calls cover weakened binding; strength is not graded here.

The target of this assay is rDR5-IgG4 (recombinant wild type DR5 with IgG4 Fc) (human) (UniProt O14763). The experiment in a line: ELISA against WT and PPCR-mutant DR5 (FIG. 5E).

B1: antibody 1114 (antibody, V domains shown)
VH: EVQLVQSGGGVERPGGSLRLSCAASGFTFDDYSMSWVRQAPGKGLEWVSGINWNGGSTAYADSVKGRVTISRDNAKNSLYLQMNSLRAEDTAVYYCAKILGAGRGWYFDAWGKGTTVTVSS
VL: SSELTQDPAVSVALGQTVRITCQGDSLRSYYGSWYQQKPGQAPVLVIYGRNNRPSGIPDRFSGSSSGNTASLTITGAQAEDEADYYCNSKDSSGNHVVFGGGTKLTVL
In the case of B1, the binding result is listed as “binds”.
